Our source for the binding values is article PMC12788653 (PLOS Pathogens, 2025).

Sequences of proteins named here, by UniProt entry; tags and fusion partners are left off. A change or cut given only in a name is not applied to a line headed by its entry.
UniProt P15682: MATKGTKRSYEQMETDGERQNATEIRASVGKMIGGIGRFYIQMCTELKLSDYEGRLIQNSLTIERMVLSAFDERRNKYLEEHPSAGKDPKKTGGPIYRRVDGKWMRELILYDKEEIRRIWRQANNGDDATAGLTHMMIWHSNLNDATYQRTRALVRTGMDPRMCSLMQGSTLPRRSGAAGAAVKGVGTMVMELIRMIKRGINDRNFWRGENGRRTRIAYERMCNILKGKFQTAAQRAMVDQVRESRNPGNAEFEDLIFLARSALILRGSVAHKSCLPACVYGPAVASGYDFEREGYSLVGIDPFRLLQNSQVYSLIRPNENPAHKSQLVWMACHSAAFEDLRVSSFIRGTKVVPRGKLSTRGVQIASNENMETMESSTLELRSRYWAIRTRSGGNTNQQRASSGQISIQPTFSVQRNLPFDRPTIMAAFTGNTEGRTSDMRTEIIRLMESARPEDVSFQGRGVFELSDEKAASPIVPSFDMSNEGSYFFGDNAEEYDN

Common to all, as to test: co-IP
In test [1] the target is endogenous PKCα (human (endogenous in A549)) (UniProt P17252).
Test [2] addresses A/WSN/1933 (H1N1) NP made in virus infected cells (influenza A/WSN/1933 (H1N1)) (UniProt P15682).
A further test deals with MEK2-3xFLAG (UniProt P36507).

No constants are given. Whether binding was seen depends on the method and setting. Binding seen in cells or lysates may run through a third protein. Some entries that bind do so weakly or less than the wild type.

For “endogenous ERK2 (from UniProt P28482 1-360) (enzyme)”, in test [1], the binding result is “binds”.
Same read-out and setting: the result for “endogenous MEK1 (from UniProt Q02750 1-393) (enzyme)” reads “binds”.
“endogenous PKCα (from UniProt P17252 1-672) (enzyme)”: the binding entry in test [2] is “binds”.
Consider “influenza A/WSN/1933 (H1N1) nucleoprotein NP-V5 (from UniProt P15682 8-498)”, for which, in the test with MEK2-3xFLAG, the binding result is reported as “no binding”.
